Literature values in US20020009799A1, “Isolation and purification of nucleic acids” (priority 1999, published 2002).
At least one compound was matched to its structure with a doubt left.

Experiments:
[1] = cited from earlier work
[2] = cited from earlier work; remark: listed apart in the source

For `CCCCCCCCCCCCCC[N+](C)(C)CCCS(=O)(=O)[O-]` [SB-14, (N-Tetradecyl-N,N-dimethyl-3-ammonio-I-propanesulfonate 3)], the “Aggregation Number” value [1] is listed as 83 and the CMC [2] is listed as 0.1 to 0.4 mM.
